The other results are listed elsewhere or left out. Further columns of the screen follow, without active or inactive calls. Most of these compounds were active or inconclusive in the main read-out, so they are no random draw. The note in brackets gives the kind of curve behind each potency; many fits are weak.
Assay: qHTS Assay to Find Inhibitors of Chronic Active B-Cell Receptor Signaling
Conditions: ABC-DLBCL IkBa-CBG/CBR reporter, luminescence ratio (green luciferase fused to IkBa over red control in TMD8 lymphoma cells), 4 h
Procedure, shortened: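 TMD8 ABC-DLBCL cells carrying doxycycline-inducible green luciferase fused to IkappaBalpha plus unfused red luciferase were exposed to compounds (up to 46 uM) for 4 hrs at 37C. Activity came from the overlap-corrected green/red luminescence ratio.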

[1] = measured here: CBR red luminescence, cell number
[2] = measured here: IkBa-CBG green luminescence

SMILES: COC(=O)CC1=NN(c2ccc(OC)cc2)C(=O)C1
- AC50 [1]: 28.2 µM [falling, single point]

SMILES: CCCN=C1CC(C)(C)CC(=O)/C1=C(/O)CCCN1C(=O)c2ccccc2C1=O
- AC50 [1]: 2.24 µM [rising, full curve, poor fit]

SMILES: O=C(Nc1cc(Cl)ccc1N1CCOCC1)c1ccc(N2CCCC2=O)cc1
- AC50 [1]: 10.3 µM [falling, partial curve, poor fit]

SMILES: Cc1ccc2sc(NNC(=O)c3ccc4c(c3)OCCO4)nc2c1C
- AC50 [1]: 16.4 µM [falling, partial curve, poor fit]

SMILES: COc1ccc(NC(=O)CCCC(=O)OCC(F)(F)C(F)F)cc1
- AC50 [1]: 29.1 µM [rising, single point]

SMILES: Cc1ccc(-c2nc3ccccc3[nH]c2=O)cc1
- AC50 [1]: 0.708 µM [rising, full curve, poor fit]

SMILES: CCOC(=O)c1ccc(N2C(=O)c3n[nH]c(-c4ccco4)c3C2c2ccc([N+](=O)[O-])cc2)cc1 (stereo not drawn)
- AC50 [1]: 29.1 µM [falling, single point]
- AC50 [2]: 32.6 µM [rising, partial curve, poor fit]

SMILES: COc1cccc2c1c(NC(=O)Nc1ccc(F)cc1F)nn2C
- AC50 [1]: 0.794 µM [falling, full curve, poor fit]

SMILES: CN(CC(=O)Nc1c(Cl)cccc1Cl)C(=O)CCC(=O)c1ccccc1
- AC50 [1]: 29.1 µM [rising, single point]

SMILES: Cc1nn(-c2ccccc2)c(Cl)c1/C=N/NC(=O)c1ccn[nH]1
- AC50 [1]: 7.08 µM [falling, partial curve, poor fit]

SMILES: N=c1c2c3c(sc2ncn1Nc1ccccc1)CCC3
- AC50 [1]: 35.5 µM [falling, single point]

SMILES: O=C(CSc1cccc[n+]1[O-])c1ccc(Cl)cc1
- AC50 [1]: 7.08 µM [falling, full curve]
- AC50 [2]: 3.16 µM [falling, full curve]

SMILES: Oc1ccc2c(c1)C1CCCC1(N1CCOCC1)O2 (stereo not drawn)
- AC50 [1]: 4.61 µM [falling, full curve, poor fit]

SMILES: Cn1nnnc1Sc1ncnc2scc(-c3ccc(Cl)cc3)c12
- AC50 [1]: 4.11 µM [falling, single point]
- AC50 [2]: 29.1 µM [falling, single point]

SMILES: CCn1c2ccccc2c2cc(N)ccc21
- AC50 [1]: 35.5 µM [falling, single point]

SMILES: CC(C)(C)c1ccc(C(=O)Nc2c3c(nn2C(C)(C)C)CS(=O)(=O)C3)cc1
- AC50 [1]: 7.94 µM [rising, partial curve, poor fit]

SMILES: COc1ccccc1NC(=O)N1CCN(c2ccccc2F)CC1
- AC50 [1]: 4.61 µM [rising, full curve, poor fit]

SMILES: COc1cc(C2NCC(c3ccc(Cl)cc3Cl)c3c2[nH]c2ccccc32)cc(OC)c1OC (stereo not drawn)
- AC50 [1]: 29.1 µM [falling, single point]

SMILES: Cc1cc(NC(=O)c2ccc(Br)c([N+](=O)[O-])c2)no1
- AC50 [1]: 5.62 µM [falling, partial curve, poor fit]

SMILES: CSc1ccccc1C(=O)Nc1nccs1
- AC50 [1]: 0.00461 µM [falling, full curve, poor fit]

SMILES: COC(=O)c1cc(=O)n(Cc2ccco2)c(=Nc2ccc(F)c(Cl)c2)s1
- AC50 [1]: 6.51 µM [falling, partial curve, poor fit]
- AC50 [2]: 11.6 µM [rising, partial curve, poor fit]

SMILES: Cc1ccc2nc(SCc3nnc(-c4ccccc4Br)o3)[nH]c2c1
- AC50 [1]: 35.5 µM [falling, single point]

SMILES: CCn1c(/C(C#N)=C/c2ccccc2Cl)nc2ccccc21
- AC50 [1]: 11.2 µM [falling, partial curve]

SMILES: Cc1ccc(OCC(=O)Nc2ccc3c(c2)C(=O)NC3=O)cc1
- AC50 [1]: 12.6 µM [falling, partial curve, poor fit]

SMILES: Nc1c(-c2ccccc2)cnn1-c1cccc(Cl)c1
- AC50 [1]: 11.2 µM [falling, partial curve]

SMILES: Cc1ccc(S(=O)(=O)N/N=C/c2ccccc2O)cc1[N+](=O)[O-]
- AC50 [1]: 15.8 µM [rising, partial curve, poor fit]

SMILES: C/C(=N\NC(=O)c1ccc(Cn2cc([N+](=O)[O-])cn2)o1)c1cccc(NC(=O)C(C)C)c1
- AC50 [1]: 32.6 µM [falling, single point]

SMILES: CCOC(=O)c1cccc(NC(=O)CSc2nc3cccnc3n2C)c1
- AC50 [1]: 29.1 µM [falling, single point]

SMILES: CCN1CCc2c(sc(NC(=O)c3ccc4ccccc4c3)c2C(N)=O)C1
- AC50 [1]: 12.6 µM [falling, single point]

SMILES: COCCCNC(=O)Cn1nc(-c2cccc(OC)c2)ccc1=O
- AC50 [1]: 25.1 µM [falling, single point]

SMILES: CC(C)NC(=O)/C(C#N)=C/c1cccc(NC(=O)c2ccccc2Cl)c1
- AC50 [1]: 14.6 µM [falling, partial curve, poor fit]

SMILES: COc1ccc(S(=O)(=O)N2CCOCC2)cc1NC(=O)COc1ccc2ccc(=O)oc2c1
- AC50 [1]: 32.6 µM [rising, single point]

SMILES: CCC(=O)Nc1ccc2c(c1)ncn2-c1ccccc1OC
- AC50 [1]: 4.47 µM [falling, partial curve, poor fit]

SMILES: Cc1cc(C(=O)OCC(=O)Nc2ccc(F)cc2F)c(C)o1
- AC50 [1]: 3.55 µM [falling, full curve]

SMILES: CCOc1ccc(NC(=O)CC2C(=O)N(C)C(=S)N2CCCc2ccccc2)cc1 (stereo not drawn)
- AC50 [1]: 16.4 µM [falling, single point]

SMILES: Cc1ccc2nc(-c3ccc(NC(=O)CN4CCN(c5ccccn5)CC4)cc3)sc2c1
- AC50 [1]: 6.31 µM [rising, single point]

SMILES: CCc1ccccc1NC(=O)Nc1ccsc1C(=O)OC
- AC50 [1]: 12.6 µM [falling, partial curve, poor fit]

SMILES: COc1ccc(C(=O)NNC(=S)NC2CCCCC2)cc1OC
- AC50 [1]: 3.98 µM [falling, partial curve, poor fit]

SMILES: COc1ccc(-c2cc(C(=O)OCC(=O)N3CCCC3)c3ccccc3n2)cc1
- AC50 [1]: 1.3 µM [falling, partial curve]

SMILES: CCOC(=O)C1CCC/C1=N\NC(=O)CN(c1cc(OC)ccc1OC)S(=O)(=O)c1ccccc1 (stereo not drawn)
- AC50 [1]: 3.16 µM [falling, full curve, poor fit]

SMILES: CN(Cc1ccccc1)C(=O)c1ccc(NC(=O)c2ccccc2)cc1
- AC50 [1]: 22.4 µM [rising, single point]

SMILES: N#CCC(=O)N/N=C/c1ccc(Cl)cc1
- AC50 [1]: 8.91 µM [falling, partial curve, poor fit]

SMILES: O=C(NC(=S)N1CCCC(C(F)(F)F)C1)c1ccc(F)cc1 (stereo not drawn)
- AC50 [1]: 35.5 µM [rising, single point]

SMILES: COc1ccc(NC(=S)Nc2ncccc2C)cc1OC
- AC50 [1]: 11.2 µM [falling, single point]

SMILES: N#Cc1ccccc1NC(=O)COc1ccc2c(c1)OCO2
- AC50 [1]: 12.6 µM [falling, single point]

SMILES: O=C(CSc1nnc(CCc2ccccc2)n1-c1ccc(Cl)cc1)NCc1ccccc1
- AC50 [1]: 18.4 µM [falling, single point]

SMILES: CSCc1nnc(NC(=O)c2ccc(S(=O)(=O)N(CC(C)C)CC(C)C)cc2)o1
- AC50 [1]: 12.6 µM [falling, single point]

SMILES: Nc1c(S(=O)(=O)c2cccc(Cl)c2)c2nc3ccccc3nc2n1CCN1CCOCC1
- AC50 [1]: 10 µM [falling, partial curve, poor fit]

SMILES: COc1ccc(NC(=S)N(CCCN2CCCCCC2)Cc2cccs2)cc1
- AC50 [1]: 20 µM [falling, partial curve, poor fit]

SMILES: O=C(Nc1nc2ccccc2[nH]1)c1ccc([N+](=O)[O-])cc1
- AC50 [1]: 1.58 µM [falling, full curve]

SMILES: O=C(O)CSc1nc2ccc(C(=O)c3ccccc3)cc2[nH]1
- AC50 [2]: 2.51 µM [rising, partial curve, poor fit]

SMILES: O=C(/C=N/O)Nc1ccc(F)cc1
- AC50 [1]: 20 µM [falling, single point]

SMILES: COCCN1CCn2c(nc3cc(NC(=O)c4cccs4)ccc32)C1
- AC50 [1]: 9.2 µM [falling, partial curve]

SMILES: Cc1sc(NC(=O)c2ccccc2F)c(CN2CCCCC2C)c1C (stereo not drawn)
- AC50 [1]: 25.9 µM [falling, single point]

SMILES: COCCCNC(NC(=O)c1ccc(OC)cc1)C(Cl)(Cl)Cl (stereo not drawn)
- AC50 [1]: 14.1 µM [rising, single point]

SMILES: Cc1c([N+](=O)[O-])c(C(=O)Nc2ccc3c(c2)OCCO3)nn1C
- AC50 [1]: 20.6 µM [falling, partial curve, poor fit]

SMILES: COc1ccc(Cl)cc1NC(=O)Cn1cnc2c1c(=O)n(C)c(=O)n2C
- AC50 [1]: 6.31 µM [rising, single point]

SMILES: CSc1nc2ccc3nc(NC(=O)c4cccs4)sc3c2s1
- AC50 [1]: 22.4 µM [falling, partial curve, poor fit]

SMILES: O=C(Nc1cccc(NS(=O)(=O)c2ccc(S(=O)(=O)NC3CC3)cc2)c1)c1ccccn1
- AC50 [1]: 35.5 µM [falling, single point]

SMILES: COc1ccc(NC(=O)Cn2cccc2)cc1Cl
- AC50 [1]: 12.6 µM [rising, partial curve, poor fit]

SMILES: Cn1ccc2cc(-c3csc(N4CCC(C(N)=O)CC4)n3)ccc21
- AC50 [1]: 3.66 µM [rising, full curve]

SMILES: CC(=O)c1sc(NC(=O)c2c(F)cccc2F)nc1C
- AC50 [1]: 6.51 µM [falling, partial curve]

SMILES: Cc1ccc2nc(N3CCN(C(=O)c4ccco4)CC3)sc2c1
- AC50 [1]: 1.84 µM [rising, full curve]

SMILES: CN(C)c1ccc(C(CNC(=O)c2ccccc2)c2c[nH]c3ccccc23)cc1 (stereo not drawn)
- AC50 [1]: 29.1 µM [falling, single point]

— PubChem BioAssay AID493014 (National Center for Advancing Translational Sciences (NCATS), 2011)
